Like-named read-outs stand apart in the source and are kept apart here. No constants are given. Whether binding was seen depends on the method and setting. Binding seen in cells or lysates may run through a third protein. A yes stands for co-enrichment or nearness to the bait. Other partners may have been found. Sequences can lack the tags named with a protein.
Key:
[1] = target: T1, glutathione transferase (GST)-6×His-Rsr1^1–243 (C. albicans) (UniProt P52498); test: affinity purification with mass spectrometry; 550 ug purified GST-Rsr1 1-243 mixed with 45 mg crude protein extract from C. albicans yeast or hyphae (septins: hyphae; other hits: lysate not told apart), overnight 4°C, captured on glutathione Sepharose, washed with PBS, eluted with 20 mM glutathione, LC-MS/MS; ratio against GST tag alone, n = 3; only the target purified
T1 sequence: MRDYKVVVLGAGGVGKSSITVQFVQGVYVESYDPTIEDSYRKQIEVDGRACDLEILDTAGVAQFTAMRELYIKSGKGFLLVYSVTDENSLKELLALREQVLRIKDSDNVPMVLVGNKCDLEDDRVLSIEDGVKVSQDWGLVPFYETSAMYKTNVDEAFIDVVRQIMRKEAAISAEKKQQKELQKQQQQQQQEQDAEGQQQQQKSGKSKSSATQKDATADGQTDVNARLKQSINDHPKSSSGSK

Sequences of proteins named here, by UniProt entry; tags and fusion partners are left off.
UniProt A0A1D8PSJ6: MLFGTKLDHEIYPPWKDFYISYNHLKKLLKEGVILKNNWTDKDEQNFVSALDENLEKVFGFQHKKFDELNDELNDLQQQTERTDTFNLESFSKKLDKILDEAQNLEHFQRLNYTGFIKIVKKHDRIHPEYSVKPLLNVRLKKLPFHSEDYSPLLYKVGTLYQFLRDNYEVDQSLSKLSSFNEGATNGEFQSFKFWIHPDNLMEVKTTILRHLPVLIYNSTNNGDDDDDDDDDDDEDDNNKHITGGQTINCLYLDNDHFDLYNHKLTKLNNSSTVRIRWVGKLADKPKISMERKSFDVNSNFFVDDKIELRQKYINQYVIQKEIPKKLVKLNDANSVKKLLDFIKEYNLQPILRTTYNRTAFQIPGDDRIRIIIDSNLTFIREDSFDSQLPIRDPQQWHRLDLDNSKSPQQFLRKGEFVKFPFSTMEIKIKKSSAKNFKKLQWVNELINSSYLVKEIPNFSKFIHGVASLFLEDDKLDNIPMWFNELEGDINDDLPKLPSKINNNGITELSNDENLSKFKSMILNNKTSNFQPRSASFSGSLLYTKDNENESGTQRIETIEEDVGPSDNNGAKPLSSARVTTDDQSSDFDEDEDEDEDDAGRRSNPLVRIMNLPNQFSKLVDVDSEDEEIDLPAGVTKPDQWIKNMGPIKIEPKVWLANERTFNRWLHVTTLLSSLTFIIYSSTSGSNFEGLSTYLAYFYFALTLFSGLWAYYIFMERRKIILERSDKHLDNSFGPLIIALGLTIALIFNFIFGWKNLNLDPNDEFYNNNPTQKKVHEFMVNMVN
UniProt P0CY33: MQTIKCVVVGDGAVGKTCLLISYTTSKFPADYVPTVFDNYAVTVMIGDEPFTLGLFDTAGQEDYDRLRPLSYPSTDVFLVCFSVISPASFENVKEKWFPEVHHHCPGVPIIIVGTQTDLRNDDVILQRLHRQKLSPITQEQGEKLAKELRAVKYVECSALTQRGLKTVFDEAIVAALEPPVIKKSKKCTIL
UniProt Q59PH5: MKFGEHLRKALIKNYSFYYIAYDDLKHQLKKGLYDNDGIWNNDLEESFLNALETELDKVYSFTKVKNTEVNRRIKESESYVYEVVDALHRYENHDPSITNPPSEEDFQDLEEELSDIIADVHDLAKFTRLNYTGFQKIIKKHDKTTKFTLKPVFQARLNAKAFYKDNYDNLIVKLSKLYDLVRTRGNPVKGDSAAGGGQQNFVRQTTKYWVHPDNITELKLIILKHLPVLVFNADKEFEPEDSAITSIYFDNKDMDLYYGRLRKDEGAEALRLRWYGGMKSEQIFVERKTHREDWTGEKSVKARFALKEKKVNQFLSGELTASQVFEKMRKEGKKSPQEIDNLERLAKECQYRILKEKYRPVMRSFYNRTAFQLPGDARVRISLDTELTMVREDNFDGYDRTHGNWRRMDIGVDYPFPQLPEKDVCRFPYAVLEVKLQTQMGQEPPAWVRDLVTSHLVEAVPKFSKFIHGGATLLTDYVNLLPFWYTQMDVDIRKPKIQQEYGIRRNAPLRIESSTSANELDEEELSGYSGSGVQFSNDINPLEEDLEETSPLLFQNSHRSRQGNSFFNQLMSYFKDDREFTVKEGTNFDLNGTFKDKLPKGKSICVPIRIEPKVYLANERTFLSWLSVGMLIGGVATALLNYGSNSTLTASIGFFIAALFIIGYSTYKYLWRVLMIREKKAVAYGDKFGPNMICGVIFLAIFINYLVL

[2] = target: T1, glutathione transferase (GST)-6×His-Rsr1^1–243 (C. albicans); test: as above; remark: listed apart in the source

Molecule	binding [1]	binding [2]
Vtc3 (from UniProt A0A1D8PSJ6 1-784)	binds	
Cdc12	binds	
Cdc42 GTPase (from UniProt P0CY33 1-191)	binds	
Cdc24	binds	
Vtc4 (from UniProt Q59PH5 1-709)	binds	
Vac8 (protein, UniProt Q59MN0 1-585) MGACCSCLGNRGGDGSHTQLLLAENEREAISALLQYLENRSDVDFFSNGPLRALSTLVYSENIDLQRSAALAFAEITEKDVREVNRDVLEPILILLQSADSEVQRAACGALGNLAVNTENKILIVEMGGLEPLIRQMMSTNIEVQCNAVGCITNLATQDDNKSKIAKSGALIPLTKLAKSKDIRVQRNATGALLNMTHSGENRQELVNAGAVPVLVSLLSNEDADVQYYCTTALSNIAVDEVNRKKLASTEPKLVGQLVHLMDSPSPRVQCQATLALRNLASDSGYQVEIVRAGGLPHLVQLLTCNHQPLVLAAVACIRNISIHPLNEALIIEAGFLKPLVGLLDYTDSEEIQCHAVSTLRNLAASSEKNRTALLAAGAVDKCKELVLKVPLTVQSEISACFAILALADDLKPKLYESHIIDVLIPLTFSENGEVCGNSAAALANLCSRVSNEHKQYILNNWAQPNEGIYGFLIRFLESGSPTFEHIALWTILQLLESNNTEINALIKENETILAGIKNLSASQQQIQQSQIGQTTTTTTTNITNNNTNTNTNTNTTTSTSNEDQFEDPKVELFNLTQQILQILG		binds
Cdc3 (protein, UniProt P39826 1-416) MSTNIKIIKKVLNGYVGFANLPKQWHRKSIRRGFSLNIMAIGESGLGKATLINTLFNRDIITSQHDSDEFDEGEEEDVSVKIKSTQAEIEEDGVKLKVSVITAPGFGESINNVEAWKPIVDEINSRFDSYLEAESRINRTAVVDNRVHAFLYFIEPTGHSLRALDIALMKQVHEKVNLIPVIAKSDTLTDEEILEFKHRILADISHQGIKIFKPTDFEYDEEESANTRSIIDSFPFAVVGSTNEVQTPDGRLVRGRKYPWGVIEVDNENHNDFVKLRQLLVRNFLEELKEHTANVLYENYRTEKLKRMGIEQDNTVFREFDPAAKQEEERALHEAKLAKMEAEMKSVFQQKVSEKEKKLQRSEADLFARHKEMKDKLTKQIKLLEEKKAQLEKQKLLPQDPPAQPAPQKSRKGFLR		binds
Cdc11 (protein, UniProt G1UB61 1-402) MNYSTENVSSAALRKRKTLKKSINFSIMIIGESGSGRSTLINTLCGGNSIVPTSSTATQDPFTKKLTLRHENVELEDNEGHKISLNIIDTPNFANSINCDDDFKIIVDFIRHQFDEVLLEESRVKRNPRFKDGRIHVLIYMINPTGHGLSDIDVKFLQHVNNLVNIIPIISKADSLTPKELKLNKELILEDLNNYGINFYKFNEYDYEQDYIDEEIIEYNKYLNSLIPFAIIGANEYRSNPNGSEDEDDILKLRILNKDFKPIDIDNAEINDFTILKNVLLVTHLNEFKDITHDSIYENYRTEALSGKQFQYVNKDSAKQEISESDYLMKEEQIKLEEERLRKFEERVHQDLINKRKELLERENELKEIEKRLLAEGLKFDENGDVVKVHEEESSENEVKVI		binds
Sep7/Shs1 (protein, UniProt Q59VX8 1-670) MSRFDYRNTSKNTSVVDPDHSSPIINYRKDAKKGIKFTFMVVGESGTGKTTFINSLLNKKVLNHRYEKLSPTVGDTKTLMFTSAKSVALPNTSILTKNEFNPRTINEEPGIALTETHIEIIDDDNQKLLLNIIDTPGFGENLNNELCFIEIENYLKQQFDLVLAEETRIKRNPRFVDTRVHVMLYFITPTGHGLREIDIQCMKRLSKYVNIIPVIGKADSFTLNELQHFKQQIRIDIQKFNVPTFQFDNSLNDYDEDEDYDLIQECKFLTNLQPFAVVTSEDVFEVRESTTSTKGNNDKPKIIRARKYPWGLVDINDTRYSDFPILKSVLLGSHLQDLKDLTHDFLYETYRTERLTKVTGNGQAFDDEENEDAEFHDTVEHQLNDSNRGVGGDDNNNNNNNNNNASTIPSMSNLAQLTTSTNEHDASHIDNNSITSTSSSIKKSTSMLIDDHPSSSPKLKNISSFTSSTSTVSLEGGEKEGGHHDRGANSTSTNNNNNNNAFKRLSIGPQRNQLRQISETVPYVLRHERILERQQKLEEMEQASARELANRAALLEKKAAQLKAKEKALRQLELNRQKQEESATSSLHRKDSDISGSVQSGGVDDGKSESTNNNNNNRNGYGYGHGHGHGQSHEYDNSEYHHDDSTPNYETSRLQKDETLTDLHSIVSNH		binds
Sec18 (protein, UniProt P34732 1-794) MEKLGFHKVSNSPSSPSQPKITHNRPIPHPQSPPLPQRPLSEPLKKQLLVDNSPGNDVVIANCVAVNAQDFQNIPDRAPVILDGVFVYSIAKDDRVRPGTIGLAGNMRTWGKWSLGQPVNVENYNIFHNGQQQQYLGAIDLSIDFRAKARANSNPINHDELVALFLKNYENQILQPTQVIYMEYTGIYFQIRVNNVQIIDVNTKDQLPSFKDSDDINTKGILIKSTDVGFYPYEGSIINLTKPKTLKQRMFGGSTPHRTSRRKQIINPDFKLEDLGIGGLDAEFQDIFRRAFNSRILPPELAEKLDYKHCKGLLLYGPPGTGKTLIARKLSKMLNGKEPKIVNGPEMLSKYVGASEENIRNLFKDAEAEYKLKGEDSDLHVIIFDELDSVFKQRGSGKSDGTGVGDNVVNQLLSKMDGVDQLNNILVIGMTNRLDLIDTALLRPGRFEIQIEISLPDEKGRKDIFLIHTKKLTENGILSSDVNFDELSTLTKNFTGAEIEGLCNSAKSYAISRHTKKGALAQIDPESIAKMKITRDDFLLALNDIRPAFGTDEEDLSQQAQHGIIQFNQTIRNIFEKGQSIIDVVRSSETEHLRSILLYGPPGVGKTSIATTLALNSDFPFIKMLSAETLVGMGELRKIQEIDNVFRDVHKSPLNVLVIDKIENIINYNPIGPRFSNDILQVLMVYLTKKPPKGRRLLIIGTTSQYQVFKHMNLIDSFNDAIAVPPIKHIEEVGKVLDKLGFMNKSEREEILSQLSRYDINIGIKSLIDVLMVSKYSRDTVDEVVNNIVEKMSG		binds
Ykt6 (protein, UniProt Q5AI79 1-200) MKIYYIGILRSSGDKALELTSARDLSQFSFFERNGVSQFMTFFAETVSQRTQPGQRQSVEEGNYIGHTYTRSEGISGIIITDKDYPVRPAYTLINKILEEYLSLHPKSDWENIDKANETLQYGQLEAYLKKYQDPTQADSIMKVQQELDDTKVVLHKTIEGVLQRGEKLDSLVDKSEALSSSSRMFYKQAKKTNSCCVIM		binds
